{"source": "patent US20130338130A1", "about": "(priority 2009, published 2013)", "test_system": "ATCC strain 43300 Staphylococcus aureus", "details": "60 μg/ml oxacillin + MSM (% in label); for survival (cfu/ml): triplicate platings", "note": "“And” between values parts separate entries of the source, which are not always exact repeats. Equal values may be shown once. Read-outs that look alike come from different tables or passages of the source. This continues a long series; more values of the same kind are listed elsewhere."}
{"smiles": "CS(C)(=O)=O", "note": "[MSM, Methylsulfonylmethane]", "values": [{"measurement": "survival (cfu/ml)", "setting": "48 hours, listed as 16% MSM", "value": "9.0 × 10^1 cfu/ml and 6.0 × 10^1 cfu/ml"}, {"measurement": "survival, Average Log", "setting": "72 hours, listed as 5% MSM", "value": 5.5, "unit": "Log"}, {"measurement": "survival, Average Log", "setting": "72 hours, listed as 6% MSM", "value": 2.8, "unit": "Log"}, {"measurement": "survival, Average Log", "setting": "72 hours, listed as 7% MSM", "value": 5.5, "unit": "Log"}, {"measurement": "survival, Average Log", "setting": "72 hours, listed as 8% MSM", "value": 5.5, "unit": "Log"}, {"measurement": "survival, Average Log", "setting": "72 hours, listed as 9% MSM", "value": 2.5, "unit": "Log"}, {"measurement": "survival, Average Log", "setting": "72 hours, listed as 10% MSM", "value": 2.6, "unit": "Log"}, {"measurement": "survival (cfu/ml)", "setting": "72 hours, listed as 5% MSM", "value": ">3.3 × 10^5 cfu/ml"}, {"measurement": "survival (cfu/ml)", "setting": "72 hours, listed as 6% MSM", "value": "6.5 × 10^2 cfu/ml and 6.4 × 10^2 cfu/ml and 6.1 × 10^2 cfu/ml"}, {"measurement": "survival (cfu/ml)", "setting": "72 hours, listed as 7% MSM", "value": ">3.3 × 10^5 cfu/ml"}, {"measurement": "survival (cfu/ml)", "setting": "72 hours, listed as 8% MSM", "value": ">3.3 × 10^5 cfu/ml"}, {"measurement": "survival (cfu/ml)", "setting": "72 hours, listed as 9% MSM", "value": "3.3 × 10^3 cfu/ml and 3.2 × 10^3 cfu/ml"}, {"measurement": "survival (cfu/ml)", "setting": "72 hours, listed as 10% MSM", "value": "3.9 × 10^2 cfu/ml and 4.0 × 10^2 cfu/ml and 3.4 × 10^2 cfu/ml"}, {"measurement": "survival (cfu/ml)", "setting": "72 hours, listed as 11% MSM", "value": "1.0 × 10^1 cfu/ml and 2.0 × 10^1 cfu/ml"}, {"measurement": "survival (cfu/ml)", "setting": "72 hours, listed as 12% MSM", "value": "2.8 × 10^2 cfu/ml and 2.1 × 10^2 cfu/ml and 2.5 × 10^2 cfu/ml"}, {"measurement": "survival (cfu/ml)", "setting": "72 hours, listed as 13% MSM", "value": "1.0 × 10^1 cfu/ml"}, {"measurement": "survival (cfu/ml)", "setting": "72 hours, listed as 14% MSM", "value": "2.0 × 10^1 cfu/ml and 4.0 × 10^1 cfu/ml"}, {"measurement": "survival (cfu/ml)", "setting": "72 hours, listed as 15% MSM", "value": 0, "unit": "cfu/ml"}, {"measurement": "survival (cfu/ml)", "setting": "72 hours, listed as 16% MSM", "value": "6.0 × 10^1 cfu/ml and 5.0 × 10^1 cfu/ml"}, {"measurement": "survival, Average Log", "setting": "96 hours, listed as 5% MSM", "value": 5.5, "unit": "Log"}, {"measurement": "survival, Average Log", "setting": "96 hours, listed as 6% MSM", "value": 3.6, "unit": "Log"}, {"measurement": "survival, Average Log", "setting": "96 hours, listed as 7% MSM", "value": 5.5, "unit": "Log"}, {"measurement": "survival, Average Log", "setting": "96 hours, listed as 8% MSM", "value": 5.5, "unit": "Log"}, {"measurement": "survival, Average Log", "setting": "96 hours, listed as 9% MSM", "value": 5.5, "unit": "Log"}, {"measurement": "survival, Average Log", "setting": "96 hours, listed as 10% MSM", "value": 3.6, "unit": "Log"}, {"measurement": "survival, Average Log", "setting": "96 hours, listed as 12% MSM", "value": 3.5, "unit": "Log"}, {"measurement": "survival, Average Log", "setting": "96 hours, listed as 13% MSM", "value": 1.6, "unit": "Log"}, {"measurement": "survival, Average Log", "setting": "96 hours, listed as 16% MSM", "value": 1.3, "unit": "Log"}, {"measurement": "survival (cfu/ml)", "setting": "96 hours, listed as 5% MSM", "value": ">3.3 × 10^5 cfu/ml"}, {"measurement": "survival (cfu/ml)", "setting": "96 hours, listed as 6% MSM", "value": "4.4 × 10^3 cfu/ml and 4.5 × 10^3 cfu/ml"}, {"measurement": "survival (cfu/ml)", "setting": "96 hours, listed as 7% MSM", "value": ">3.3 × 10^5 cfu/ml"}, {"measurement": "survival (cfu/ml)", "setting": "96 hours, listed as 8% MSM", "value": ">3.3 × 10^5 cfu/ml"}, {"measurement": "survival (cfu/ml)", "setting": "96 hours, listed as 9% MSM", "value": ">3.3 × 10^5 cfu/ml"}, {"measurement": "survival (cfu/ml)", "setting": "96 hours, listed as 10% MSM", "value": "3.9 × 10^3 cfu/ml and 4.0 × 10^3 cfu/ml and 3.5 × 10^3 cfu/ml"}, {"measurement": "survival (cfu/ml)", "setting": "96 hours, listed as 11% MSM", "value": 0, "unit": "cfu/ml"}, {"measurement": "survival (cfu/ml)", "setting": "96 hours, listed as 12% MSM", "value": "3.0 × 10^3 cfu/ml and 3.5 × 10^3 cfu/ml and 3.1 × 10^3 cfu/ml"}, {"measurement": "survival (cfu/ml)", "setting": "96 hours, listed as 13% MSM", "value": "4.0 × 10^1 cfu/ml and 5.0 × 10^1 cfu/ml"}, {"measurement": "survival (cfu/ml)", "setting": "96 hours, listed as 14% MSM", "value": 0, "unit": "cfu/ml"}, {"measurement": "survival (cfu/ml)", "setting": "96 hours, listed as 15% MSM", "value": 0, "unit": "cfu/ml"}, {"measurement": "survival (cfu/ml)", "setting": "96 hours, listed as 16% MSM", "value": "2.0 × 10^1 cfu/ml and 3.0 × 10^1 cfu/ml"}, {"measurement": "survival, Average Log", "setting": "120 hours, listed as 5% MSM", "value": 5.5, "unit": "Log"}, {"measurement": "survival, Average Log", "setting": "120 hours, listed as 6% MSM", "value": 4.5, "unit": "Log"}, {"measurement": "survival, Average Log", "setting": "120 hours, listed as 7% MSM", "value": 5.5, "unit": "Log"}, {"measurement": "survival, Average Log", "setting": "120 hours, listed as 8% MSM", "value": 5.5, "unit": "Log"}, {"measurement": "survival, Average Log", "setting": "120 hours, listed as 9% MSM", "value": 5.5, "unit": "Log"}, {"measurement": "survival, Average Log", "setting": "120 hours, listed as 10% MSM", "value": 4.2, "unit": "Log"}, {"measurement": "survival, Average Log", "setting": "120 hours, listed as 11% MSM", "value": 0, "unit": "Log"}, {"measurement": "survival, Average Log", "setting": "120 hours, listed as 12% MSM", "value": 4.2, "unit": "Log"}, {"measurement": "survival, Average Log", "setting": "120 hours, listed as 13% MSM", "value": 0, "unit": "Log"}, {"measurement": "survival, Average Log", "setting": "120 hours, listed as 14% MSM", "value": 0, "unit": "Log"}, {"measurement": "survival, Average Log", "setting": "120 hours, listed as 15% MSM", "value": 0, "unit": "Log"}, {"measurement": "survival, Average Log", "setting": "120 hours, listed as 16% MSM", "value": 0, "unit": "Log"}, {"measurement": "survival (cfu/ml)", "setting": "120 hours, listed as 5% MSM", "value": ">3.3 × 10^5 cfu/ml"}, {"measurement": "survival (cfu/ml)", "setting": "120 hours, listed as 6% MSM", "value": "3.7 × 10^4 cfu/ml and 3.4 × 10^4 cfu/ml and 2.4 × 10^4 cfu/ml"}, {"measurement": "survival (cfu/ml)", "setting": "120 hours, listed as 7% MSM", "value": ">3.3 × 10^5 cfu/ml"}, {"measurement": "survival (cfu/ml)", "setting": "120 hours, listed as 8% MSM", "value": ">3.3 × 10^5 cfu/ml"}, {"measurement": "survival (cfu/ml)", "setting": "120 hours, listed as 9% MSM", "value": ">3.3 × 10^5 cfu/ml"}, {"measurement": "survival (cfu/ml)", "setting": "120 hours, listed as 10% MSM", "value": "1.6 × 10^4 cfu/ml and 1.5 × 10^4 cfu/ml and 1.7 × 10^4 cfu/ml"}, {"measurement": "survival (cfu/ml)", "setting": "120 hours, listed as 11% MSM", "value": 0, "unit": "cfu/ml"}, {"measurement": "survival (cfu/ml)", "setting": "120 hours, listed as 12% MSM", "value": "1.72 × 10^4 cfu/ml and 1.6 × 10^4 cfu/ml and 1.5 × 10^4 cfu/ml"}, {"measurement": "survival (cfu/ml)", "setting": "120 hours, listed as 13% MSM", "value": 0, "unit": "cfu/ml"}, {"measurement": "survival (cfu/ml)", "setting": "120 hours, listed as 14% MSM", "value": 0, "unit": "cfu/ml"}, {"measurement": "survival (cfu/ml)", "setting": "120 hours, listed as 15% MSM", "value": 0, "unit": "cfu/ml"}, {"measurement": "survival (cfu/ml)", "setting": "120 hours, listed as 16% MSM", "value": 0, "unit": "cfu/ml"}]}
